# Where “and” joins values, the source holds several entries; their conditions need not be identical. Equal entries are not always repeated. Hit rate of the full screen: of about 580,000 compounds, about 6,100 (1.1%) were called active. This list was built around the results that the source calls inconclusive (neither active nor inactive); the mix of calls is not that of the screen. Calls follow the shape of the dose curve; as a rule, active = well fitted inhibition curve with a large enough effect; inconclusive = small, poorly fitted or top-dose-only effect, or another doubt; inactive = no such curve, though single readings can be large or run the other way. A potency beside an inconclusive call is a rough fit, not a confirmed value.
# Chains of the proteins cited; added tags and fusions are not shown. Lines headed by an entry give the natural chain unless they say otherwise; changes in a name come on top.
# UniProt P18054: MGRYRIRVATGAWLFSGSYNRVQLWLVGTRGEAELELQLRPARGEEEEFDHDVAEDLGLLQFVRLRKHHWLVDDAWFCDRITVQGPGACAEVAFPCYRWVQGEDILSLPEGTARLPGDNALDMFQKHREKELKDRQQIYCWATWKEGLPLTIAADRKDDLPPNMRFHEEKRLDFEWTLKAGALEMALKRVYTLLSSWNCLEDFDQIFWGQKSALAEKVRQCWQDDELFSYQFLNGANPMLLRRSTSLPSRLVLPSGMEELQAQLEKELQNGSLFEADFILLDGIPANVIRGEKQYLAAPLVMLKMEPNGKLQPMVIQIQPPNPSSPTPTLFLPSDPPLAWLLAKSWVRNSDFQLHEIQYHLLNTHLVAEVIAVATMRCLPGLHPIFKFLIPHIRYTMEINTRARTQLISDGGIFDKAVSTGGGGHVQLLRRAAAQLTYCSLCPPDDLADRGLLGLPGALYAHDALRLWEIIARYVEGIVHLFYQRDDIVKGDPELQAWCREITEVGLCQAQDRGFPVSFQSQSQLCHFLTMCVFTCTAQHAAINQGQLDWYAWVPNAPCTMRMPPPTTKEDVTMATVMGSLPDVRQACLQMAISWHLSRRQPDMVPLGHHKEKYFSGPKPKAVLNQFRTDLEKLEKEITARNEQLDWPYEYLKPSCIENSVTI
# Target: Polyunsaturated fatty acid lipoxygenase ALOX12 (Homo sapiens) (UniProt P18054)
# Assay: Primary qHTS assay for inhibitors of human arachidonate 12S-lipoxygenase (ALOX12): Round 2
# Details: purified 12hLO, xylenol orange hydroperoxide absorbance; activity change, negative = inhibition: at 108 µM (top of the series) unless noted
# Method in brief: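 Hydroperoxide product was detected by ferrous iron/xylenol orange as the 573 to 405 nm absorbance ratio. Arachidonic acid at 40 uM (final) was turned over for 30 min at room temperature by 150 nM human 12hLO, pH 7.0 Hepes buffer, after 15 min compound preincubation.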
# % is scaled to controls: 0 for no effect and ±100 for the full control effect; potency is read from the fitted curve at half-maximal effect.
Compound,Potency,"activity change, negative = inhibition"
COc1ccc(CS(=O)(=O)CC(C)(O)c2ccccc2Cl)cc1 (stereo unspecified),"inconclusive: 39.8 µM [inhibitor, single point]",
COCCN(C(=O)COC(=O)/C=C/c1ccc2ccccc2n1)c1c(N)n(Cc2ccccc2)c(=O)[nH]c1=O,"inconclusive: 44.7 µM [inhibitor, partial curve, poor fit]",
COC(=O)c1ccccc1NC(=O)/C(C#N)=C/c1ccc(C)o1,,inactive: 48.7%
Oc1ccc(/C=C/c2nc(-c3ccc(F)cc3)cs2)cc1,"inconclusive: 14.1 µM [inhibitor, full curve, poor fit]",
CCC(C)Oc1ccc(C2CC(=O)NC3=C2C(=O)CCC3)cc1 (stereo unspecified),,inactive: -8.2%
O=C(Nc1ccc2c(c1)OCO2)C1CC(c2cccc(Br)c2)=NO1 (stereo unspecified),"inconclusive: 112 µM [inhibitor, single point]",
Cc1ccc(CNC(=O)c2oc3c(c2C)-c2nn(Cc4ccc(Cl)cc4)cc2CC3)cc1,"inconclusive: 50.1 µM [inhibitor, partial curve]",
Cc1cc(C(=O)OCC(=O)c2ccc3c(c2)OCCO3)c(C)o1,"inconclusive: 7.94 µM [inhibitor, full curve, poor fit]",
NC(=O)c1c(NC(=S)Nc2ccccc2)sc2c1CCCC2,active: 35.5 µM,
COC(=O)c1c(C)oc2c1cc(NS(=O)(=O)c1cccs1)c1ccccc12,"inconclusive: 31.6 µM [inhibitor, partial curve, poor fit]",
Cc1c(C(=O)c2cccc(F)c2)c2ccccn2c1CCC#N,"inconclusive: 22.4 µM [inhibitor, single point]",
COc1ccc(OCCOC(=O)c2nc3nccc(C)n3n2)cc1,,inactive: -7.21%
COc1ccc(N2CCN(Cc3nc4c(c(=O)[nH]c(=O)n4C)n3Cc3ccc(Cl)cc3)CC2)cc1,"inconclusive: 79.4 µM [inhibitor, partial curve, poor fit]",
C/C(=N/N=C(\C)c1ccccc1O)c1ccccc1O,,inactive: -5.64%
O=C1CC(/C=C/c2ccccc2)Cc2nc(N3CCCC3)ncc21 (stereo unspecified),,inactive: 9.34%
O=C(Nc1ccc2c(c1)OCO2)c1ccc(N2CCCC2)c([N+](=O)[O-])c1,,inactive: -7.45%
CN(Cc1cccnc1)C1CCCc2ccccc21 (stereo unspecified),,inactive: 17.4% [at 176 µM]
Cc1cccc(-c2nnc(SCc3cc(=O)c4cccc(Cl)c4[nH]3)n2C)c1,,inconclusive: -35.8% [inhibitor]
COc1ccc(C(=O)NC(C)c2nc3ccccc3[nH]2)cc1OC (stereo unspecified),,inactive: -3.42%
CCn1ccc2oc(C)c(C(=O)N3CCN(c4ccc(Cl)cc4)CC3)c2c1=O,"inconclusive: 22.4 µM [inhibitor, partial curve]",
COCCN(CC(=O)Nc1cccc(C)c1C)C(=O)Cn1c(=O)cnc2ccccc21,"inconclusive: 89.1 µM [inhibitor, single point]",
O=C(CCc1nnn2c1CNCC2)NC1CC1,"inconclusive: 3.98 µM [inhibitor, full curve, poor fit]",
C[N+](C)(C)CCC(O)c1ccccc1 (stereo unspecified),"inconclusive: 22.4 µM [inhibitor, partial curve, poor fit]",
Cc1ccc2c(CN(Cc3ccco3)Cc3ccco3)cc(=O)oc2c1C,,inactive: 8.2%

Compound,Potency,"activity change, negative = inhibition"
Cc1ccc(C(=O)NC(=S)NCC2CCCO2)cc1Br (stereo unspecified),active: 28.2 µM,
COc1ccc(CCNC(=O)c2c([S-])n(-c3ccc(C)cc3)c3cccc[n+]23)cc1,active: 35.5 µM,
O=C1CSC(c2ccc([N+](=O)[O-])cc2)N1CCN1CCCCC1 (stereo unspecified),"inconclusive: 56.2 µM [inhibitor, partial curve, poor fit]",
O=C(Cc1cccs1)NCc1nnc2ccc(-c3ccccc3)nn12,"inconclusive: 10 µM [inhibitor, partial curve]",
O=C1CCCN1CCCN1C(=O)N[C@@H](Cc2ccccc2)C1=O,,inactive: 0%
CCCOC(=O)Nc1ccc(N2CCCCC2)cc1,"inconclusive: 89.1 µM [inhibitor, partial curve, poor fit]",
O=C(COc1ccccc1)NCc1ccc2c(c1)CCN2C(=O)c1ccc(Cl)cc1,"inconclusive: 141 µM [inhibitor, partial curve, poor fit]",
COc1cccc(/C=N/NC(=O)c2c(C)nc3ccc(Cl)cn23)c1O,,inactive: -9.8%
Cc1sc(NC(=O)C2CCCCC2C(=O)O)c(C(N)=O)c1-c1ccc(C(C)(C)C)cc1 (stereo unspecified),,inactive: -6.68%
COc1ccc(C(=O)NCCSc2ccccc2C)cc1,,inactive: 0%
CC(CCc1ccccc1)NC(=O)C(=O)NCCO (stereo unspecified),,inactive: -3.15%
CC(C)(NO)/C(=N/O)c1cccs1,"inconclusive: 28.2 µM [inhibitor, partial curve, poor fit]",
C[C@H]1C=C(C(=O)NCc2nc3ccccc3[nH]2)O[C@@H](OCCCCO)C1,"inconclusive: 0.282 µM [inhibitor, full curve]",
COc1ccc(OC)c(NC(=O)c2cc(-c3ccc(Cl)s3)nc3ccccc23)c1,,inactive: -16.1%
COc1ccccc1Cc1c(-c2ccco2)nc2ccc(C)cn12,"inconclusive: 20 µM [inhibitor, partial curve, poor fit]",
CCc1nc2ccc(C(=O)Nc3cc(-c4ccccc4)ccc3OC)cn2c1N(CCN(C)C)CC1CC1,"inconclusive: 35.5 µM [inhibitor, partial curve, poor fit]",
O=[N+]([O-])c1ccc(CNc2ccc(Cl)cc2)s1,"inconclusive: 44.7 µM [inhibitor, single point]",
O=C(Nc1ccccc1-c1ccccc1)c1cccc(F)c1,,inactive: -13.4%
N/C(=N\OC(=O)c1ccccc1[N+](=O)[O-])c1cccnc1,"inconclusive: 44.7 µM [inhibitor, partial curve, poor fit]",
O=C1NC(=S)SC1=Cc1ccc2c(c1)OCO2,,inactive: -15.1%
CCN(CC(=O)NCCc1ccc(F)cc1)Cc1nc2ccccc2c(=O)[nH]1,,inactive: 2.97%
Cc1ccc2c(C(=O)Nc3ccc(F)cc3)cnn2c1,"inconclusive: 28.2 µM [inhibitor, full curve]",
O=C1CC(c2ccccc2)N(C(=O)CNS(=O)(=O)c2ccc3c(c2)CCC3)CCCCCCN1 (stereo unspecified),"inconclusive: 100 µM [inhibitor, single point]",
Cc1nn2c(c1-c1ccccc1C(C)C)N(C(=O)c1cc3ccccc3n1C)CCC2,"inconclusive: 79.4 µM [inhibitor, partial curve]",

# Looked up above:
# Entry for Cc1sc(NC(=O)C2CCCCC2C(=O)O)c(C(N)=O)c1-c1ccc(C(C)(C)C)cc1 (stereo unspecified) under activity change, negative = inhibition: inactive: -6.68%
# Entry for Cc1nn2c(c1-c1ccccc1C(C)C)N(C(=O)c1cc3ccccc3n1C)CCC2 under Potency: inconclusive: 79.4 µM [inhibitor, partial curve]
# Entry for COc1ccc(CCNC(=O)c2c([S-])n(-c3ccc(C)cc3)c3cccc[n+]23)cc1 under Potency: active: 35.5 µM
# Entry for N/C(=N\OC(=O)c1ccccc1[N+](=O)[O-])c1cccnc1 under Potency: inconclusive: 44.7 µM [inhibitor, partial curve, poor fit]

# (next part)

Compound,Potency,"activity change, negative = inhibition"
COc1ccc(/C=N/NC(=S)Nc2cccc(C(=O)O)c2)cc1,"inconclusive: 50.1 µM [inhibitor, partial curve, poor fit]",
COc1ccc(-c2csc3ncnc(N4CCN(S(=O)(=O)c5cccc(Br)c5)CC4)c23)cc1,,inactive: -2.18%
O=S(=O)(NCCc1ccc(Cl)cc1)c1ccc(N2CCCCS2(=O)=O)cc1,"inconclusive: 141 µM [inhibitor, partial curve, poor fit]",
CCN(Cc1ccccc1)C(=O)CC1CCCN(c2cnn(CC)c(=O)c2)C1 (stereo unspecified),"inconclusive: 25.1 µM [inhibitor, partial curve, poor fit]",
COc1ccc2[nH]cc(CCNC(=O)C3CCCN(C(C)=O)C3)c2c1 (stereo unspecified),"inconclusive: 89.1 µM [inhibitor, single point]",
CCOC(=O)c1oc2cc(OCc3cccc(OC)c3)ccc2c(=O)c1-c1ccc(OC)cc1,,inactive: -4.51%
COc1ccc(N/N=C(\C#N)C(N)=O)cc1,,inactive: -13.3%
N#Cc1c(N)nc2c(c1N)CC(=O)N2c1ccc(Cl)cc1,"inconclusive: 20 µM [inhibitor, full curve, poor fit]",
Cn1c2c(c(=O)n(C)c1=O)C(c1ccc(Cl)cc1)C(C#N)=C(N)O2 (stereo unspecified),"inconclusive: 63.1 µM [inhibitor, partial curve, poor fit]",
CCN(CC)CC(C)(C)NS(=O)(=O)c1ccc(Cl)cc1,"inconclusive: 1.78 µM [inhibitor, full curve, poor fit] and inconclusive: 39.8 µM [inhibitor, partial curve, poor fit]",
O=C(c1ccc(Cl)cc1)C1CCN(Cc2ccccc2)CC1,"inconclusive: 2.24 µM [inhibitor, single point]",
Cc1ccc(C2Cn3nnc(C(=O)N4CCC(C(=O)NCc5ccc(F)cc5)CC4)c3CO2)cc1 (stereo unspecified),,inactive: 2.84%
O=C(NCc1ccc(NC(=O)C2CC2)cc1)c1ccc[n+]([O-])c1,,inactive: -16.8%
N#CCCn1cc(/C=N/NC(N)=S)c(-c2ccc(-c3ccccc3)cc2)n1,,inconclusive: -117% [inhibitor]
CCN1C/C(=C/c2cccs2)c2nc3ccccc3c(C(=O)O)c2C1,"inconclusive: 39.8 µM [inhibitor, partial curve]",
O=C(Nc1ccc2c(c1)OCO2)c1ccc2c(c1)S(=O)(=O)c1ccccc1C2=O,"inconclusive: 50.1 µM [inhibitor, partial curve, poor fit]",
Cc1ccc(-c2noc(CCC(=O)NCCCN3CCN(c4cccc(Cl)c4)CC3)n2)cc1,"inconclusive: 31.6 µM [inhibitor, partial curve, poor fit]",
COCCN1C(=O)CO[C@H]2CN(CCCc3ccccc3)C[C@H]21,,inactive: 3.84% [at 176 µM]
Cc1ccccc1NC(=O)COC(=O)CCc1ccccc1,,inactive: -4.34%
Cc1ccc(CNC(=O)CC(C)S(=O)(=O)c2ccc3c(c2)NC(=O)CO3)cc1 (stereo unspecified),,inactive: 0.507%
COc1ccccc1N1CCN(CCCCN2C(=O)CCC2=O)CC1,"inconclusive: 35.5 µM [inhibitor, single point]",
O=C(NC1CC1)c1ccccc1OCC1CCCN(Cc2cccc3[nH]ccc23)C1 (stereo unspecified),,inactive: -13.2%
Cc1nc2c(OCc3ccc(C(F)(F)F)cc3)cccn2c1N(C)Cc1cccs1,"inconclusive: 50.1 µM [inhibitor, partial curve, poor fit]",
